Some of the results follow.
Compound: Cc1cc(ccc1-c1ccccc1)C(=O)N1CCCN(CC1)C(=O)CCl [compound 10]
Test: probe-labelled cysteine peptide fold change vs DMSO (competition) (log2 fold change); higher = less target engagement (more negative = stronger competition)
Conditions: THP-1, incubation time: 4 h
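Note: competitive profiling in live THP-1 cells: cysteine peptides tagged with an iodoacetamide desthiobiotin (IA-DTB) probe, intensity after compound treatment relative to DMSO-treated cells.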

Amino acid sequences for entries named in this document (tags omitted). A change or cut given only in a name is not applied to a line headed by its entry.
UniProt O00186: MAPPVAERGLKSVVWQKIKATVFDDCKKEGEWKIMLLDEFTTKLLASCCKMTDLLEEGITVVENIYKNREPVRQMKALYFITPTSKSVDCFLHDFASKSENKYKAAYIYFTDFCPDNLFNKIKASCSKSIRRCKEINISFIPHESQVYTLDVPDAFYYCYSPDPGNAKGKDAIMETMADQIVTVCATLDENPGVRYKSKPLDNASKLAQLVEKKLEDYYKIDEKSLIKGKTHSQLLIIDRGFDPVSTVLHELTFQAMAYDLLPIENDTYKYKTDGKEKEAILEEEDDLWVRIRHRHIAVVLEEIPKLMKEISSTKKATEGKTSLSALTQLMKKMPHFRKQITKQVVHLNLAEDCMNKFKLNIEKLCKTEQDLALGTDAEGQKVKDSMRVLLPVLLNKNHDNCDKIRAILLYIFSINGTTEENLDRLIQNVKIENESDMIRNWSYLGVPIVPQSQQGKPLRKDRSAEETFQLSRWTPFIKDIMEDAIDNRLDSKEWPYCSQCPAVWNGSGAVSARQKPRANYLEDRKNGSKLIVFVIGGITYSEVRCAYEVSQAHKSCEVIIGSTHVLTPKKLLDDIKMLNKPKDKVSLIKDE
UniProt Q9BXP5: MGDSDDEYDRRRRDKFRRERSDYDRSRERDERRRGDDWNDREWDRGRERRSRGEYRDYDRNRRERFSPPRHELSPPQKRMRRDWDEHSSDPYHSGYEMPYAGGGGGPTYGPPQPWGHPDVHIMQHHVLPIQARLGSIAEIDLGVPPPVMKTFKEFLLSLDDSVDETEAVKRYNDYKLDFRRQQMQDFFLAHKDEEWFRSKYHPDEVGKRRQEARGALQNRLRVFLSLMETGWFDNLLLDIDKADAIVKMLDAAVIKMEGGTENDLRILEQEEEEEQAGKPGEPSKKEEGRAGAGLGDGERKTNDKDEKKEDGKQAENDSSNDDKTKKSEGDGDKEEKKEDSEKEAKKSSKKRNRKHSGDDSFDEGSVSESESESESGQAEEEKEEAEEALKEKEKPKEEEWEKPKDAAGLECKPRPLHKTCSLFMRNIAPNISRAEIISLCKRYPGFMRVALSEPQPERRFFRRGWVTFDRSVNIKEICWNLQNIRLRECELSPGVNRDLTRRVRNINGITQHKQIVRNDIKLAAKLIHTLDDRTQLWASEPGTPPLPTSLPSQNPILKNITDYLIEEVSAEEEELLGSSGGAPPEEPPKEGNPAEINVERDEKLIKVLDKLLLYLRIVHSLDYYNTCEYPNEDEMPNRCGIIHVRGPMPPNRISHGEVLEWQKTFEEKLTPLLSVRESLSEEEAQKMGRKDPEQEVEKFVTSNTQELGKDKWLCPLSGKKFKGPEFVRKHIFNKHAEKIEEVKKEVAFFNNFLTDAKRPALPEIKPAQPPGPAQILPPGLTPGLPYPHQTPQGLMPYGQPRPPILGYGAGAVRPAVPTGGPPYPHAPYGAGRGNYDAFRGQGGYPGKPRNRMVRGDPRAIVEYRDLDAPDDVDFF
UniProt P40763, whole entry, looked up: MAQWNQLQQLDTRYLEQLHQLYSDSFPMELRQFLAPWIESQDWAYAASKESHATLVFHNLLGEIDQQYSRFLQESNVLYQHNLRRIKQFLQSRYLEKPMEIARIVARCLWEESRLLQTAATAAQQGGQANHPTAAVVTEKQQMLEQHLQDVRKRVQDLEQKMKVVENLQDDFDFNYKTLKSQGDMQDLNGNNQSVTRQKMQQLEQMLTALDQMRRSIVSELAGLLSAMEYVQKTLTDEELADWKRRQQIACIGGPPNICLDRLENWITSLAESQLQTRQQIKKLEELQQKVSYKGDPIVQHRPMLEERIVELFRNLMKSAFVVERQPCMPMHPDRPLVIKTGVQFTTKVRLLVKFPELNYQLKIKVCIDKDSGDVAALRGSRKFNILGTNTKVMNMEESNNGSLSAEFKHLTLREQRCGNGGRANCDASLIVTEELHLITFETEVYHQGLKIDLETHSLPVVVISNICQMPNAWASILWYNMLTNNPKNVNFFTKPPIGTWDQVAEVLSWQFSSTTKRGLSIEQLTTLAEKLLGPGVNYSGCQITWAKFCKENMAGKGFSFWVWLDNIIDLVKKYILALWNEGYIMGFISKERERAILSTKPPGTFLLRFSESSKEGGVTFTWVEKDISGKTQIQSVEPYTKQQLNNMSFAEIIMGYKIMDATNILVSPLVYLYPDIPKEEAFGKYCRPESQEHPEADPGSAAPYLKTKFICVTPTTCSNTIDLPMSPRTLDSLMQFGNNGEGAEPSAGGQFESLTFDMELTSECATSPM
UniProt Q9P2R7: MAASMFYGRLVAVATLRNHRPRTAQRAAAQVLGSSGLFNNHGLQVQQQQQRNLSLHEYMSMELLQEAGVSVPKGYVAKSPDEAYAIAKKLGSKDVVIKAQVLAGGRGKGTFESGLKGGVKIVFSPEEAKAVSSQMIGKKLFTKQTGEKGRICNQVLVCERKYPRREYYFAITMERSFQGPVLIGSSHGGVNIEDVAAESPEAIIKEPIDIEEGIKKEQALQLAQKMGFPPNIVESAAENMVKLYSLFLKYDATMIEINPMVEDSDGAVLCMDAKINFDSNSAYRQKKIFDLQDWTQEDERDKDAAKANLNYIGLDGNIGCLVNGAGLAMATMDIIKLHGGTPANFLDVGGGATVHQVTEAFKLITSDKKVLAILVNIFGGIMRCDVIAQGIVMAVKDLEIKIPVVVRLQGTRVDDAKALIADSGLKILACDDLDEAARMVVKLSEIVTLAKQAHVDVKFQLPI
UniProt Q15468: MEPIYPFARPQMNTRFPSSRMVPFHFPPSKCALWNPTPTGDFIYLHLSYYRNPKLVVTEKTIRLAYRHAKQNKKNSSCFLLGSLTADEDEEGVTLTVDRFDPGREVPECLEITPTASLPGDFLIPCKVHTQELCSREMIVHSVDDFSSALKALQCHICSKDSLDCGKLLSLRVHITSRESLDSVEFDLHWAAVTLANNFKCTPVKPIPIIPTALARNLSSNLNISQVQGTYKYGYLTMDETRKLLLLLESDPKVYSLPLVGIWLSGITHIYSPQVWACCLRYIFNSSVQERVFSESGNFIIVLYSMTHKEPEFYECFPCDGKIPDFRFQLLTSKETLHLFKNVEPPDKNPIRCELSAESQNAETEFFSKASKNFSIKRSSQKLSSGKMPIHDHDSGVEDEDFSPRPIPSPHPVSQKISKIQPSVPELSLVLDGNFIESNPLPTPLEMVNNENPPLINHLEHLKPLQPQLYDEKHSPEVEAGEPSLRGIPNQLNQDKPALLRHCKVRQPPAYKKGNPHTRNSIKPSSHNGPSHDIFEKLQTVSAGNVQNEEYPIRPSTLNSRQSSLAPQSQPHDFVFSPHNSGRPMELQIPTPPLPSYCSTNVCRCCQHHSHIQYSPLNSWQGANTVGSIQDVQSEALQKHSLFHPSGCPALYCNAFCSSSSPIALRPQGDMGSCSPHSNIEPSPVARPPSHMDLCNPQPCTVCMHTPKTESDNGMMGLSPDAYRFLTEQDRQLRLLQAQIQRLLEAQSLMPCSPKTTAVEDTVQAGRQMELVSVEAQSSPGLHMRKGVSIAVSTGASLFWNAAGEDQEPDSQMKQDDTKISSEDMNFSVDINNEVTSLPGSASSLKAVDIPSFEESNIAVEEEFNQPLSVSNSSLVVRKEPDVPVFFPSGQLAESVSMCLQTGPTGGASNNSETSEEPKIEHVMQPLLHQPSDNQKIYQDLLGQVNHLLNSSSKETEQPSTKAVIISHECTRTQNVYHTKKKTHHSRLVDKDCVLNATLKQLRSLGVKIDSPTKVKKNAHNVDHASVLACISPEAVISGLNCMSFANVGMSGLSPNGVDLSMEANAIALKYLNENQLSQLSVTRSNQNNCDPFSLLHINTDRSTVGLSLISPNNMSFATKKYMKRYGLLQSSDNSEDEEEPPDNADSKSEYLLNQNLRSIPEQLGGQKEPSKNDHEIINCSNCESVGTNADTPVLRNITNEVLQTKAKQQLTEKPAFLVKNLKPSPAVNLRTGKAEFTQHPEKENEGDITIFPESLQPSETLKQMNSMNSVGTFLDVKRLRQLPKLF
UniProt Q9UNE7: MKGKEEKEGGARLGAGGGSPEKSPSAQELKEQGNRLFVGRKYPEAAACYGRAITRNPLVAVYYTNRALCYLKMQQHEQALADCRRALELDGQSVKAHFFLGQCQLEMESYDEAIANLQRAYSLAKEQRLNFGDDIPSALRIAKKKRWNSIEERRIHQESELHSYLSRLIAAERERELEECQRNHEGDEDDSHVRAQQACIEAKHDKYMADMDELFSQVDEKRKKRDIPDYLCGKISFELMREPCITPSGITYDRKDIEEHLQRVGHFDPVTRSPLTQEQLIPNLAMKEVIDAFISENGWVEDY
UniProt Q8TE77: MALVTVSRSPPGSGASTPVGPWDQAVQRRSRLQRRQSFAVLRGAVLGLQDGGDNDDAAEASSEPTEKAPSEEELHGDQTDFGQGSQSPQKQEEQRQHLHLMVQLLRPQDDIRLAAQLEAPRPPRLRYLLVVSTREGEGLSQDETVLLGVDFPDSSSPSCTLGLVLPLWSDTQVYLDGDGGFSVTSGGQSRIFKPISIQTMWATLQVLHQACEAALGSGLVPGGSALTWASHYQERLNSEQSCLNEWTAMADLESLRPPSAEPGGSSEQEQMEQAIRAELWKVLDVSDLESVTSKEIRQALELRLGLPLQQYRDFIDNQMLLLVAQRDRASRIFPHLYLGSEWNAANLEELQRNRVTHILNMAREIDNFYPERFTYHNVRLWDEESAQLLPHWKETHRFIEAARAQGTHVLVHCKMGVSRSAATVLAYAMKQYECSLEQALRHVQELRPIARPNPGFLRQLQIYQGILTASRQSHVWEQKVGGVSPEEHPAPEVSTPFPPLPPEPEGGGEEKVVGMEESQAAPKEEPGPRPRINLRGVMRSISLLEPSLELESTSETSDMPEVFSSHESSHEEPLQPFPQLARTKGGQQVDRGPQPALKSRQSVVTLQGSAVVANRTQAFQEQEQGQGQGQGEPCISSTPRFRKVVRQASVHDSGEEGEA
UniProt P31948, whole entry, looked up: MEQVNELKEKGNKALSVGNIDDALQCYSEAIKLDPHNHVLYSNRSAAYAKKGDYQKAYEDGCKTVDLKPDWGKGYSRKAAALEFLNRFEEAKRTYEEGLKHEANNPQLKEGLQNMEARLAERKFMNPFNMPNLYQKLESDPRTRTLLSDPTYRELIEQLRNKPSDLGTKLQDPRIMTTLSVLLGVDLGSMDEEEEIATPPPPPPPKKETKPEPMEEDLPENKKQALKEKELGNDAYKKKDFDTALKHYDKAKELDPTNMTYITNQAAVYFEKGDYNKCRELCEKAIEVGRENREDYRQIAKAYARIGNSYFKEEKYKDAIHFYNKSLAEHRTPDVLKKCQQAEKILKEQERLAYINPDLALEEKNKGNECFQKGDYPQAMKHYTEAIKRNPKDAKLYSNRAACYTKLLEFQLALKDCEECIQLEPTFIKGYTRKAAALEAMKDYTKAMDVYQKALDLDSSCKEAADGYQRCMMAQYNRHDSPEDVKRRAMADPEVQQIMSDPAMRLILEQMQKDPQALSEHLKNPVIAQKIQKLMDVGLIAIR
UniProt P52630: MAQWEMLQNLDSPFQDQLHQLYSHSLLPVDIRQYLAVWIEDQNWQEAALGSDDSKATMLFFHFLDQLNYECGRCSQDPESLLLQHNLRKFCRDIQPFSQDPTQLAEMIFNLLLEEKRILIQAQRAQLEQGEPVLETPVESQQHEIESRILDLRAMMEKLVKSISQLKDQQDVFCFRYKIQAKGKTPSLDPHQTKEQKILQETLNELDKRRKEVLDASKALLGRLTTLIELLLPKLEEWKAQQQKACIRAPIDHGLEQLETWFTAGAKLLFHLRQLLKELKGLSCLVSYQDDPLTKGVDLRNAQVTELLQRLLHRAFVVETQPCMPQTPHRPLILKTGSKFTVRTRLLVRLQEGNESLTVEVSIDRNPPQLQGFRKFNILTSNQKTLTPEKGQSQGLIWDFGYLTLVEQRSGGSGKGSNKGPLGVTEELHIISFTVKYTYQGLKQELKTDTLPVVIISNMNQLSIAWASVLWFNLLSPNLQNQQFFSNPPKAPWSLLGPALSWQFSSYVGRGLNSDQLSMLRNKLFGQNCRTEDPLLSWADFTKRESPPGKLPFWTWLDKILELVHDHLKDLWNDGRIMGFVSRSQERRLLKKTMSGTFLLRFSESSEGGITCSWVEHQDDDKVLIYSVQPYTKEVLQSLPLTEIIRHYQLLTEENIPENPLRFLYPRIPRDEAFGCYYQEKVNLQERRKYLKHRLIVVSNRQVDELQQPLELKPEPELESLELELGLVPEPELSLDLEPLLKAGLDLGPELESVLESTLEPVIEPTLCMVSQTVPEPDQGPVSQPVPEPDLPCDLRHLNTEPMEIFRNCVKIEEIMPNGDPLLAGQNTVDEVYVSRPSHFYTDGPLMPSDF
UniProt O60232: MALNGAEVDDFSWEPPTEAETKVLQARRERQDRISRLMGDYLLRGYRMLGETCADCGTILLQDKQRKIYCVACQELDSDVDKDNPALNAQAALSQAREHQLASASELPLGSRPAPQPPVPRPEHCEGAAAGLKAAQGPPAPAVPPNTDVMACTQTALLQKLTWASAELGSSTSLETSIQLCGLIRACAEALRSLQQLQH

Target | probe-labelled cysteine peptide fold change (10 µM) | probe-labelled cysteine peptide fold change (50 µM)
STXBP5_Q5T5C0_800_EAISALHFCETFTR (UniProt Q5T5C0) | -0.0114 | -0.0806
SUPV3L1_Q8IYB8_418_FNDPNDPCK (UniProt Q8IYB8) | -0.0272 | 0.218
STOML2_Q9UJZ1_167_ERESLNASIVDAINQAADCWGIR (UniProt Q9UJZ1) | -0.0119 | -0.271
STK39_Q9UEW8_525_LASGCDGSEIPDEVK (UniProt Q9UEW8) | -0.108 | 0.0413
STAMBP_O95630_406+408_DPPLFCSCSHVTVVDR (UniProt O95630) | -0.0134 | -0.382
STXBP3_O00186_114_AAYIYFTDFCPDNLFNK (UniProt O00186) | 0.0291 | 0.184
SWAP70_Q9UH65_94_MCWTLCVK (UniProt Q9UH65) | 0.0797 | -0.302
SUPT6H_Q7KZ85_939_IQDPLIEFAQVCSSDEDILCLK (UniProt Q7KZ85) | 0.202 | 0.0981
STXBP3_O00186_354_QVVHLNLAEDCMNK (UniProt O00186) | -0.206 | -0.141
SRRT_Q9BXP5_412_DAAGLECKPRPLHK (UniProt Q9BXP5) | -0.258 | -0.391
STX4_Q12846_141_CNSMQSEYR (UniProt Q12846) | 0.00952 | -0.179
SURF2_Q15527_29_CILTGHELPCR (UniProt Q15527) | 0.276 | 0.153
STXBP3_O00186_557_SCEVIIGSTHVLTPK (UniProt O00186) | 0.0882 | -0.126
STAT3_P40763_251_QQIACIGGPPNICLDR (UniProt P40763) | -0.357 | -0.332
SUPT5H_O00267_638_KLVENGGMFVCK (UniProt O00267) | -0.0826 | 0.0974
STK17B_O94768_190_KIGHACELR (UniProt O94768) | 0.158 | -0.0266
SRRT_Q9BXP5_412_DAAGLECKPR (UniProt Q9BXP5) | -0.171 | -0.219
SUCLA2_Q9P2R7_430_ILACDDLDEAAR (UniProt Q9P2R7) | -0.109 | 0.103
STAG2_Q8N3U4_632_HTDTDVLEACSK (UniProt Q8N3U4) | 0.104 | 0.3
SRRT_Q9BXP5_640_CGIIHVR (UniProt Q9BXP5) | 0.192 | 0.149
SUZ12_Q15022_531_TPITHILVCR (UniProt Q15022) | -0.0964 | -0.131
STAT6_P42226_272_TLVTSCFLVEK (UniProt P42226) | 0.00513 | 0.0177

Target | probe-labelled cysteine peptide fold change (10 µM) | probe-labelled cysteine peptide fold change (50 µM)
STIL_Q15468_353_CELSAESQNAETEFFSK (UniProt Q15468) | -0.0727 | -0.147
SYK_P43405_206_DNNGSYALCLLHEGK (UniProt P43405) | -0.0437 | -0.0268
STAG2_Q8N3U4_711_WDLFACNYK (UniProt Q8N3U4) | 0.155 | 0.204
STUB1_Q9UNE7_83_MQQHEQALADCR (UniProt Q9UNE7) | 0.251 | 0.147
SSX2IP_Q9Y2D8_529_KPHSVSNGSPVCMSK (UniProt Q9Y2D8) | -0.304 | -0.849
SRRT_Q9BXP5_412_DAAGLECK (UniProt Q9BXP5) | -0.158 | 0.224
SUZ12_Q15022_531_TPITHILVCRPK (UniProt Q15022) | -0.105 | -0.316
SUPT5H_O00267_429_EHNFQPGDNVEVCEGELINLQGK (UniProt O00267) | -0.204 | -0.0713
ST14_Q9Y5Y6_550_SQQCNGKDDCGDGSDEASCPK (UniProt Q9Y5Y6) | 0.0415 | -0.658
SUGT1_Q9Y2Z0_154_CQEAQNGSESEVWTHQSK (UniProt Q9Y2Z0) | 0.159 | -0.0351
STUB1_Q9UNE7_244_EPCITPSGITYDR (UniProt Q9UNE7) | -0.0733 | -0.112
STXBP6_Q8NFX7_144_KPEFINCQSK (UniProt Q8NFX7) | -0.284 | -0.157
SUZ12_Q15022_201_DVSCPIR (UniProt Q15022) | -0.099 | -0.27
STAU2_Q9NUL3_11_TAMCLVNELAR (UniProt Q9NUL3) | 0.0183 | -0.03
STT3A_P46977_637_VDREGSPVLLNCLMYK (UniProt P46977) | 0.0583 | -0.00172
STARD4_Q96DR4_75_AQGVIDDLVYSIIDHIRPGPCR (UniProt Q96DR4) | 0.151 | 0.545
SRRM2_Q9UQ35_785_SLSGSSPCPK (UniProt Q9UQ35) | -0.479 | -0.673
STIM2_Q9P246_426_ALSELTTCLR (UniProt Q9P246) | -0.00769 | -0.562
SUCLG1_P53597_172_LIGPNCPGVINPGECK (UniProt P53597) | 0.155 | 0.0544
SUN1_O94901_403_QPLQGDSEAFPWHWMSGVEQQVASLSGQCHHHGENLR (UniProt O94901) | 0.209 | -0.282
STRN3_Q13033_757_TCVQEITAHR (UniProt Q13033) | 0.117 | 0.132
STAM2_O75886_76_VPHVALQALTLLGACVANCGK (UniProt O75886) | -0.0779 | 0.0749

Target | probe-labelled cysteine peptide fold change (10 µM) | probe-labelled cysteine peptide fold change (50 µM)
STT3B_Q8TCJ2_715_AGSPTLLNCLMYK (UniProt Q8TCJ2) | 0.0595 | 0.172
SUGP2_Q8IX01_476_TLSNPLDLALALETTNSLCR (UniProt Q8IX01) | 0.0793 | 0.43
STYX_Q8WUJ0_156_FCINPNAGFVHQLQEYEAIYLAK (UniProt Q8WUJ0) | 0.0482 | 0.342
SSH3_Q8TE77_434_QYECSLEQALR (UniProt Q8TE77) | -0.058 | -0.0996
STAT3_P40763_687_YCRPESQEHPEADPGSAAPYLK (UniProt P40763) | -0.139 | 0.0845
STK4_Q13043_80_EISIMQQCDSPHVVK (UniProt Q13043) | -0.0952 | -0.122
SYK_P43405_593+597_MGCPAGCPR (UniProt P43405) | 0.00642 | -0.398
SVIL_O95425_1928_ALIYLWHGCK (UniProt O95425) | -0.173 | 0.285
SRSF1_Q07955_148_EAGDVCYADVYR (UniProt Q07955) | 0.222 | -0.255
STX12_Q86Y82_29_DFSSIIQTCSGNIQR (UniProt Q86Y82) | 0.143 | 0.0626
STIP1_P31948_417_DCEECIQLEPTFIK (UniProt P31948) | 0.327 | -0.028
SYMPK_Q92797_578_AVACSGAAQVR (UniProt Q92797) | -0.258 | -0.379
STXBP5_Q5T5C0_49_VLDGLTAGSSSASQQQQQQHPPGNREPEIQETLQSEHFQLCK (UniProt Q5T5C0) | -0.0678 | -0.0625
STT3B_Q8TCJ2_40_HGHHGPGAQCAHK (UniProt Q8TCJ2) | -0.253 | -1
SRSF9_Q13242_80_NGYDYGQCR (UniProt Q13242) | 0.159 | -0.00957
SSBP3_Q9BWW4_80_DTCEHSSEAK (UniProt Q9BWW4) | -0.0103 | -0.251
SUPT6H_Q7KZ85_1281_FSADLTCR (UniProt Q7KZ85) | -0.129 | -0.0215
SUMF1_Q8NBK3_365_CAADRLPTMD (UniProt Q8NBK3) | -0.207 | -0.241
STAT2_P52630_529_LFGQNCR (UniProt P52630) | -0.178 | 0.0371
SUPT6H_Q7KZ85_960_EELLNALYCEFINR (UniProt Q7KZ85) | 0.268 | 0.39
STIL_Q15468_970_AVIISHECTR (UniProt Q15468) | -0.157 | -0.195
STRBP_Q96SI9_254_SIGTCNRPLGAGEALR (UniProt Q96SI9) | -0.222 | 0.0552

Target | probe-labelled cysteine peptide fold change (10 µM) | probe-labelled cysteine peptide fold change (50 µM)
STAT2_P52630_174_DQQDVFCFR (UniProt P52630) | 0.0734 | -0.0859
SUPT4H1_P63272_16_ACLLCSLVK (UniProt P63272) | 0.0392 | -0.179
STAT1_P42224_324_QPCMPTHPQRPLVLK (UniProt P42224) | -0.202 | 0.136
SURF4_O15260_32_LCLISTFLEDGIR (UniProt O15260) | 0.222 | 0.533
SRSF10_O75494-3_167_SHSDNDRPNCSWNTQYSSAYYTSR (UniProt O75494) | -0.337 | -0.557
STOM_P27105_87_GPGLFFILPCTDSFIK (UniProt P27105) | 0.114 | 0.454
SSSCA1_O60232_73_IYCVACQELDSDVDK (UniProt O60232) | -0.0172 | 0.273
STK11_Q15831_210_ISDLGVAEALHPFAADDTCR (UniProt Q15831) | -0.252 | -0.136
STAU1_O95793_541_DVESCHDMAALNILK (UniProt O95793) | 0.174 | -0.0308
SUCLA2_Q9P2R7_384_CDVIAQGIVMAVK (UniProt Q9P2R7) | 0.0333 | 0.284
STIP1_P31948_339_KCQQAEK (UniProt P31948) | 0.367 | -0.271
SYK_P43405_89+101_THASPADLCHYHSQESDGLVCLLK (UniProt P43405) | -0.0638 | -0.0651
SSH3_Q8TE77_634_TQAFQEQEQGQGQGQGEPCISSTPR (UniProt Q8TE77) | -0.125 | -0.345
STAT3_P40763_426_ANCDASLIVTEELHLITFETEVYHQGLK (UniProt P40763) | 0.319 | 0.388
STIM1_Q13586_56_IDKPLCHSEDEK (UniProt Q13586) | -0.542 | -0.218
SRSF3_P84103_6_DSCPLDCK (UniProt P84103) | -0.0133 | -0.594
STUB1_Q9UNE7_232_DIPDYLCGK (UniProt Q9UNE7) | 0.182 | 0.00134
STARD3_Q14849_291_TFLPCPAELVYQEVILQPER (UniProt Q14849) | 0.678 | 0.907
STAMBP_O95630_286_GVETCGILCGK (UniProt O95630) | 0.09 | -0.00811
SUMF2_Q8NBJ7_290_CAADAGRPPGEL (UniProt Q8NBJ7) | -0.371 | 0.187
